Test results from doi:10.1101/2024.04.28.591571.
No constants are given. Whether binding was seen depends on the method and setting. Binding seen in cells or lysates may run through a third protein.

By UniProt entry, the sequences of proteins in these tests, tags left out.
UniProt Q96J02: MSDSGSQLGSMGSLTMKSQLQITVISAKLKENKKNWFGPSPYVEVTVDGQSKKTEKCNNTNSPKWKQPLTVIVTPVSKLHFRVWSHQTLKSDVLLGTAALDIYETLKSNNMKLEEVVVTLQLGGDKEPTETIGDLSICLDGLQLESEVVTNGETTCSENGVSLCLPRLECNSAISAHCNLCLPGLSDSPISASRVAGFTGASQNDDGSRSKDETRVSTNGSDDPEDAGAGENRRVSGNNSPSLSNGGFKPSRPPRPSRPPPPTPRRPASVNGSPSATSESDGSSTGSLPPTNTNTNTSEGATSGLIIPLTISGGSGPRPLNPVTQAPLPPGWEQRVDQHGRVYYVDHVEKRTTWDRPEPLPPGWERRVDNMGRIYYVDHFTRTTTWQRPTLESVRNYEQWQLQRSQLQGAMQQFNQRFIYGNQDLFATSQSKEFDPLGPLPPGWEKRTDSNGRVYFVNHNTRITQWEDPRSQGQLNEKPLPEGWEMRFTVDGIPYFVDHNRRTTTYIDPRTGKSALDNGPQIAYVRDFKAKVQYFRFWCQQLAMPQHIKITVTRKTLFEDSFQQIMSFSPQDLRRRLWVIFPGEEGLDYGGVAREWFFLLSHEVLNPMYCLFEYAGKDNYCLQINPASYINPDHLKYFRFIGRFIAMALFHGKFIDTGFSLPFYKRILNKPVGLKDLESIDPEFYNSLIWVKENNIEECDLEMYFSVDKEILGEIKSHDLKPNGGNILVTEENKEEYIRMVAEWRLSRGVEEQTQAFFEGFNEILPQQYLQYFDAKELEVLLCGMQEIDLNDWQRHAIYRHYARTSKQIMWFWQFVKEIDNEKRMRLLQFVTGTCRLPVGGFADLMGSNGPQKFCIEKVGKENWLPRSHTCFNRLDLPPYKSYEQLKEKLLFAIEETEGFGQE
UniProt P98170: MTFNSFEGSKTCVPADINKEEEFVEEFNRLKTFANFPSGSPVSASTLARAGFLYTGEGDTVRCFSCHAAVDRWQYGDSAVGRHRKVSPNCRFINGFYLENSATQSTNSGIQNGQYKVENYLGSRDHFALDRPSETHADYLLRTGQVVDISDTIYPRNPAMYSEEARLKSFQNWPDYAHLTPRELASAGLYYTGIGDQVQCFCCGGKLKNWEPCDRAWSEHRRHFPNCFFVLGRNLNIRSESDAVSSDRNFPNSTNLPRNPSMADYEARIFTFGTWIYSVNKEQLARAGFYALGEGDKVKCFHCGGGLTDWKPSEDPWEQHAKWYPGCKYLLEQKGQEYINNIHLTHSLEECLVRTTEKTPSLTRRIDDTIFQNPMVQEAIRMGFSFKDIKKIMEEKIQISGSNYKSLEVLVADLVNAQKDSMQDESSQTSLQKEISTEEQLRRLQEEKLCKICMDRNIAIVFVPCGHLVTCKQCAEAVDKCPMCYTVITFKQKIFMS

Molecular target: ITCH (E3 ubiquitin ligase) (human (endogenous in K562)) (UniProt Q96J02)
Assay: co-IP

binding: no binding
Substance: X-Linked Inhibitor of Apoptotic Proteins (XIAP) (from UniProt P98170 1-497)
